Some results were stated once for a whole list of compounds, not compound by compound. At least one structure is not confirmed: it was looked up by name or label, or the drawing left a doubt.
Key:
Assay type in all cases: in vivo
[1] = test system: diamondback moth (Plutella xylostella); experiment: Test A: control of diamondback moth on radish plant, foliar spray; details: sprayed at 50 ppm; neonate larvae on radish plant; 6 days, 25° C.; visually assessed
[2] = test system: green peach aphid (Myzus persicae); experiment: Test C: control of green peach aphid on radish plant, contact and/or systemic; details: sprayed at 250 ppm, 6 days, 19-21° C.
[3] = test system: corn planthopper (Peregrinus maidis); experiment: Test E: control of corn planthopper on maize plant, contact and/or systemic; details: sprayed at 250 ppm; nymphs on maize plant; 6 days, 22-24° C.
[4] = test system: cotton melon aphid (Aphis gossypii); experiment: Test D: control of cotton melon aphid on cotton plant, contact and/or systemic; details: sprayed at 250 ppm
[5] = test system: fall armyworm (Spodoptera frugiperda); experiment: Test B: control of fall armyworm on maize plant, foliar spray; details: sprayed at 50 ppm; 1-day-old larvae on maize plant; 25° C.; visually rated
[6] = test system: potato leafhopper (Empoasca fabae); experiment: Test F: control of potato leafhopper on Soleil bean plant, contact and/or systemic; details: adults on Soleil bean plant, 6 days, 24° C.

| SMILES | control efficacy, very good to excellent: feeding damage (40% or less feeding damage and/or 100% mortality) [1] | mortality [2] | control efficacy, very good to excellent: mortality [3] | mortality [4] | control efficacy, very good to excellent: feeding damage (40% or less feeding damage and/or 100% mortality) [5] | control efficacy, very good to excellent: mortality ([6]; sprayed at 50 ppm) | control efficacy, very good to excellent: mortality ([6]; sprayed at 250 ppm) |
| --- | --- | --- | --- | --- | --- | --- | --- |
| Fc1ccccc1-c1nn(-c2ccc(Cl)cc2)cc1CN1CCC(c2ncon2)CC1 [Compound 830] | ≤ 40% | at least 80% | – | – | – | – | – |
| N#CC1CCN(Cc2cn(-c3ncc(Cl)cc3Cl)nc2-c2ccc(F)cc2)CC1 [Compound 863] | ≤ 40% | – | ≥ 80% | – | – | – | – |
| N#CC1CCCN(Cc2cn(-c3ccc(Cl)c(Cl)c3)nc2-c2ccccc2Cl)C1 (stereo not drawn) [Compound 522] | ≤ 40% | at least 80% | – | – | – | – | – |
| Fc1ccccc1-c1nn(-c2ccc(Br)cn2)cc1CN1CCC(c2ncccn2)CC1 [Compound 881] | ≤ 40% | – | ≥ 80% | – | – | – | – |
| N#CC1(c2cncc(Cl)c2)CC2CCC(C1)N2Cc1cn(-c2ccc(Cl)c(Cl)c2)nc1-c1ccccc1F (stereo not drawn) [Compound 529] | – | at least 80% | – | at least 80% | – | – | – |
| N#CC1CCN(Cc2cn(-c3ccc(Cl)cn3)nc2-c2c(F)cc(F)cc2F)CC1 [Compound 806] | ≤ 40% | – | – | at least 80% | ≤ 40% | ≥ 80% | ≥ 80% |

From US9113631B2, “1,3-diaryl-substituted heterocyclic pesticides” (E I DU PONT DE NEMOURS AND COMPANY, priority 2011, dated 2015)
